We go through two substances from article PMC7482812.

By UniProt entry, the sequences of proteins in these tests, tags left out. Where a name states a change or a piece, a line headed by the entry shows the natural chain unless it says otherwise.
UniProt P03372: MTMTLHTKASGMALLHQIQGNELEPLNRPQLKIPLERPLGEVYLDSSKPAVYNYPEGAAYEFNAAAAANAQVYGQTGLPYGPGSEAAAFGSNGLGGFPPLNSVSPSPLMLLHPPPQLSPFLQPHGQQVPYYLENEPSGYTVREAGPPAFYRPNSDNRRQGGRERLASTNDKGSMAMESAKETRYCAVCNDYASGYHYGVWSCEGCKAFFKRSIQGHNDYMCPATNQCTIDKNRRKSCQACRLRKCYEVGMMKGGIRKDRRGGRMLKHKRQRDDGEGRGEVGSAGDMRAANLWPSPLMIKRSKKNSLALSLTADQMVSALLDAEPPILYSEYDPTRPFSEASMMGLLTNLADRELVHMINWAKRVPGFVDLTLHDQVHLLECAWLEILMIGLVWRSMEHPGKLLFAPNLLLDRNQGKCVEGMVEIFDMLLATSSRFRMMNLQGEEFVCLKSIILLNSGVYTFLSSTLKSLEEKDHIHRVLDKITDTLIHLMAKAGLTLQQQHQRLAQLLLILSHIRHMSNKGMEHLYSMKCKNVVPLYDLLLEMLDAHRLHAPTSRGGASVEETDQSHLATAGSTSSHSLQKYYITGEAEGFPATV
UniProt P46527: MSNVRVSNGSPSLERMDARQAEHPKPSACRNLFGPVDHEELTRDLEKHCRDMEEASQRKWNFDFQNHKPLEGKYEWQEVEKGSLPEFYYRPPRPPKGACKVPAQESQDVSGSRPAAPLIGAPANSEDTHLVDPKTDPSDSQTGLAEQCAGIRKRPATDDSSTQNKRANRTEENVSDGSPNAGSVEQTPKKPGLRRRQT
UniProt P24385: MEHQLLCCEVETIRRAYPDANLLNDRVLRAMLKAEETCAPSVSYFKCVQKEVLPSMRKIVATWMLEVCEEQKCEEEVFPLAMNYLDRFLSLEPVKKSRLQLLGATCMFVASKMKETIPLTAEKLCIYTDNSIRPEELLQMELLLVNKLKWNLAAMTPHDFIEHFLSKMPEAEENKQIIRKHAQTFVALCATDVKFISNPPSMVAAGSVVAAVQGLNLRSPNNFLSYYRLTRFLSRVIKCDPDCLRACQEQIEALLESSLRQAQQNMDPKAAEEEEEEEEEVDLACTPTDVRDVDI

Assay [1] has as its target estrogen receptor-α (human (endogenous in T47D)) (UniProt P03372). Description: co-IP; T47D cells (control, miR-575-overexpressing, miR-575/BRCA1-overexpressing, miR-575-depleted); precipitated with anti-ERα antibody or control normal IgG, blotted with anti-cyclin D1, anti-BRCA1 or anti-ERα antibody.
Assay [2] addresses cyclin dependent kinase inhibitor 1B (human (endogenous in T47D)) (UniProt P46527). Description: co-IP; cytoplasmic and nuclear fractions of the same T47D cells; precipitated with anti-CDKN1B antibody or control normal IgG, blotted with anti-ERα antibody.
Assay [3] has the same target. Description: co-IP; hormone-deprived T47D cells transfected with a CDKN1B-expressing plasmid or vector control, with or without 10 nM E2 for 48 h; precipitated with anti-CDKN1B antibody or control normal IgG, blotted with anti-ERα antibody.

Results are given in words; binding and its absence hold for the method and conditions named. Binding seen in cells or lysates may run through a third protein. Some results given as binding are weak or reduced against the parent protein; the word gives no strength.

In the case of cyclin D1 (from UniProt P24385 1-295), in assay [1], the binding entry is on record as “binds”. Turning to “estrogen receptor-α (from UniProt P03372 1-595)”, the binding result in assay [2] and in assay [3] was “binds” in each case.
